The results in this text go back to paper doi:10.1101/137711.

Results are given in words; binding and its absence hold for the method and conditions named. Some binding calls cover weakened binding; strength is not graded here.

This assay has as its target T1, Smc4(Q302L)-StrepII3, ATPase-deficient Q-loop mutant (S. cerevisiae) (UniProt Q12267).
T1 sequence: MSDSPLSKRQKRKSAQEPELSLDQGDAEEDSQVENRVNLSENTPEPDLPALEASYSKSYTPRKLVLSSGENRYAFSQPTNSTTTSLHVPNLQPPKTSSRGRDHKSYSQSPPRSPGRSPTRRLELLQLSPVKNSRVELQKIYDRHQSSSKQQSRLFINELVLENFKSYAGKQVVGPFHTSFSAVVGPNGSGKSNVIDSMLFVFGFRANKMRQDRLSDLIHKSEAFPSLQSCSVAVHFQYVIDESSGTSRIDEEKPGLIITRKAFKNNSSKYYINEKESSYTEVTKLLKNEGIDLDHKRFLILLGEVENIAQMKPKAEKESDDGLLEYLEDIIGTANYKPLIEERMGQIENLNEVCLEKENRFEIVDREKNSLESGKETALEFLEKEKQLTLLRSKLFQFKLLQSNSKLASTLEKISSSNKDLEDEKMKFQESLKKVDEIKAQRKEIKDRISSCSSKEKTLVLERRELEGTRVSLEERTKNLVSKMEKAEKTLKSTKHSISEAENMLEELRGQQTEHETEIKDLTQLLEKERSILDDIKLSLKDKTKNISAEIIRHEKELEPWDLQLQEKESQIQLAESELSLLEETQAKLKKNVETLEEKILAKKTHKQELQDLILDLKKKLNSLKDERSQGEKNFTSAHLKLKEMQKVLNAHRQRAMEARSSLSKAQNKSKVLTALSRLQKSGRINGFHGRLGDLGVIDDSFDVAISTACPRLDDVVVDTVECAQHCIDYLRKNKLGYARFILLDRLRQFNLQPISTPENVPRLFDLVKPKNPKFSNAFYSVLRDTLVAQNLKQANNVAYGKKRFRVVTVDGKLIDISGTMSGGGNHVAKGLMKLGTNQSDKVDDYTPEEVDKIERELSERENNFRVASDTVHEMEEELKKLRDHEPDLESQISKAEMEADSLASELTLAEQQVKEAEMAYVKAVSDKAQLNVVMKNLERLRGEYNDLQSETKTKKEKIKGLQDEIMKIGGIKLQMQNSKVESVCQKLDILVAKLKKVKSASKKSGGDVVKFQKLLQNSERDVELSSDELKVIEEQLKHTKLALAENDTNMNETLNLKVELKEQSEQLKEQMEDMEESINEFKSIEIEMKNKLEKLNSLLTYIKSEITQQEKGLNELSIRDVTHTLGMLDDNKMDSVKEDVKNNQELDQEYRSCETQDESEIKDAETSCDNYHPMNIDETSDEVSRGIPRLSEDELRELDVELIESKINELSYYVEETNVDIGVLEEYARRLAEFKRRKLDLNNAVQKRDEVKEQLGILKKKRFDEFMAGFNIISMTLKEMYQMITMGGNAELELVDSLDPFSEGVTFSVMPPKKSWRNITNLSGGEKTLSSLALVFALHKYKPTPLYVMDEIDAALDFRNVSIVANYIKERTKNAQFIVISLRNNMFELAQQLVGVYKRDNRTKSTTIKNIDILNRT
Put plainly: tandem affinity co-purification + SEC.

B1: Ycs4 HEAT-repeat subunit of condensin (protein, UniProt Q06156 1-1176)
chain: MSGFSLSEYLTKFQTTDRESYPRLQDPSRELNVIIDQLAVSPEQIDASPDSLEALIDLCHDFPHLTPKLQTQLSYLISSSLSNLSKDIKANLSSNVNFTEIGGLIPQWKRHLEEYGYLIQVLLTFLQDELHKVSSQSTNLNRSAKNSKNDSANVELFKRDCNQMENLLESITKLLEINLSKIFQTTPEKDLFIGLFTRPLFVLLEIEPVTKVSSLKMFIQRILAMCVKNHGQSSSIQSSLMTNLTYFLHLSVFNAELLKLLNDEYNYPQLTEDILKEISTRVFNAKDTTGPKAISNFLIKLSELSPGIMLRQMNLVITLLNNSSITLRCSVVEACGNIVAELAQDPQTMEHYKQQIAVLIELLEERFQDSNPYVRTKAIQGCSKICDLSSKFNKSKAKFTSLAVRSLQDRSSLVRRNSVKLLSKLLLKHPFKAIHGSQLRLSEWEEYLKGSESQLNSTLKKVESQETLNDTIERSLIEEEVEQDEGQCRTELEGSFNKSAELSRIENEVENINATNTSVLMKLKLMIVYYKDAISFIKEIHKSIELISNLLFSKNRNEVLESMDFLVLADAFDIELSEFGIKKMLHLVWMKGTNDEGTSISVHLIECYKQLFLTAPDSCNMQEKAAHIAKNLINLSIGASIADLASLEQLLGMMYEQKLIDQHVINILWAIYNSASKASMQKEQNVNNRDSEKGFSKEQIHGSIIILGMLSLADNEIALKGLESLLNIGLGAVGLKDLTLCRYSCLALERMVPKRSTIITKAINQELEDVAVKKLYAIIINYTKDNEYYPMCEQALSALFTISSKPDILATDLIREKTMMTFGKPEEEDSILSLEQSSRVVSLSQLLFIVGQVAIKTLVYLEKCEAEFKKRKIEAETRNGKVKNQGADVTNTTQDNGGDKELEMIGGTNEDDFTDAIQFVKENELLFGEKSILGKFCPIVEEIVSNSSRFSDPMLQRTATLCLEKLMCLSSKYCEKSLPLLITVMEKSPDPTIRSNAVLGLGDMAVCFNNLVDENTDYLYRRLHDENLMVQRTCLMTVTFLILAGQVKVKGQLGEMAKCLDNPDQGISDMCRLFFTELASKDNAIYNGFIDIFSNLSSDDLLGKESFKKIIKFLLTFIDKERHQKQLNEKLVGRLRKCETQKQWDDIAFVLNNLPYKNEDVTALLEQGFKVVSAKE
Turning to B1, the binding result is on record as “binds”.
